Source: ChEMBL document CHEMBL3988442, “University of Dundee, Small-Polar-MMV Screening Library” (2021).

The chains behind the UniProt entries cited, without tags or fusion partners. Residues count along the entry.
UniProt Q4DA54, 1-478: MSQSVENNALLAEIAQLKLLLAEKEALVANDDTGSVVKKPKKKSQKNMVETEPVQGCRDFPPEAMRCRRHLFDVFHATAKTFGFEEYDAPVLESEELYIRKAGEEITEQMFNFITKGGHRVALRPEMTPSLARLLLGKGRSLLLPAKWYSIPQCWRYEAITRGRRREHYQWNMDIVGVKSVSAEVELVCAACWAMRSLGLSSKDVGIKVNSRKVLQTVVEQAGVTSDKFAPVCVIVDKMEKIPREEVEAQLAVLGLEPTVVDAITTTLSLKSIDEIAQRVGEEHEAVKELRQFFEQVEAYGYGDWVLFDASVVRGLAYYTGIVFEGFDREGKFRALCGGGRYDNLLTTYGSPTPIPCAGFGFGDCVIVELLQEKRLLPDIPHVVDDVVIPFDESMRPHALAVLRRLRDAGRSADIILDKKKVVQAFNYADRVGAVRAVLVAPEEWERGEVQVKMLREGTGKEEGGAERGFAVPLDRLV
UniProt A4I591, 1-473: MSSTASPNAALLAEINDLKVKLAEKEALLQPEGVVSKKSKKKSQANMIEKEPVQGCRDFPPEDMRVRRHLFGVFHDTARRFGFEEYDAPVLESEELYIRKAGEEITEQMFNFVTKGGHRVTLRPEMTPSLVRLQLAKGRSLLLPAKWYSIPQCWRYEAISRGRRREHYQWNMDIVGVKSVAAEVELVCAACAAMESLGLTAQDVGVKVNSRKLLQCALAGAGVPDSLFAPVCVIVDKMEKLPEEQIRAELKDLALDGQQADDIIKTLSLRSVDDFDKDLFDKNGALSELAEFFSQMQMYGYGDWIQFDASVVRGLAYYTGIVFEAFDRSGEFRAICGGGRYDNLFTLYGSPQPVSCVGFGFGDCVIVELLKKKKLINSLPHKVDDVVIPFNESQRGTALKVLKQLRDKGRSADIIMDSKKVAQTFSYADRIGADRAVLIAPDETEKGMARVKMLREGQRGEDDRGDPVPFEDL

Toxoplasma: 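Assay of Toxoplasma gondii numbers, read through their beta-galactosidase reporter with a colour substrate. Concentration: 10 µM. The record gives no direction; the compounds picked for IC50 retests had high values, so higher reads as fewer parasites. About 67,000 compounds were tested under these conditions; 0.38% (about 260) showed 50% or more at least once.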
TcHisRS: 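Enzyme assay of histidyl-tRNA synthetase; the read-out is not stated. Target: Histidine-tRNA ligase, Trypanosoma cruzi CL Brener (UniProt Q4DA54). Tested at 30 µM. The record gives no direction; compounds that gave an IC50 in retests scored well above the rest, so higher reads as stronger inhibition. About 69,000 compounds were tested under these conditions; 0.045% (about 31) showed 50% or more at least once.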
LiHisRS: 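Enzyme assay of histidyl-tRNA synthetase; the read-out is not stated. Target: Histidine-tRNA ligase, Leishmania infantum (UniProt A4I591). Concentration: 30 µM. Higher reads as stronger inhibition (inferred: compounds with an IC50 in retests scored well above the rest). The assay is labelled LdHisRS but filed under L. infantum. Size under these conditions: about 69,000 compounds, about 410 of them at 50% or above in at least one test.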
T. brucei: 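Whole-parasite assay of Trypanosoma brucei over 72 hours; the read-out is not stated. Tested at 30 µM. Higher reads as stronger inhibition (inferred: compounds with an IC50 in retests scored well above the rest). Values scatter widely below zero; nearly all retest evidence comes from the higher of the two concentrations used. Size under these conditions: about 64,000 compounds, about 940 of them at 50% or above in at least one test.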

Results are given as percent effect. How 0% and 100% were set is not recorded. Most values in the screen are low, and negative values occur. This is an unselected part of the compounds tested. A dash means the value is not listed here; it may have been measured.

* Cc1cc(C)n(CC2CN(Cc3cccc(C#N)c3)CCO2)n1 (configuration not stated) | Toxoplasma: 14.39%; TcHisRS: 11.21%; LiHisRS: 20%; T. brucei: -15.44%
* CCc1nc(C2CCCN(C(=O)c3ccc(Cl)cc3)C2)no1 (configuration not stated) | Toxoplasma: 4.592%; TcHisRS: 5.539%; LiHisRS: 4.425%
* Cc1ccc(C(=O)N2CCC3(CC2)CC(N2CCCC2)C3)cc1.O=C(O)C(F)(F)F | Toxoplasma: 3.379%; T. brucei: -4.803%
* COCCC1COC2(CCN(C(=O)c3cccnc3)CC2)C1 (configuration not stated) | TcHisRS: 1.961%; LiHisRS: 14%
* O=C(NC[C@@]1(COc2cnccn2)C[C@@H](O)[C@@H](O)C1)C1CCCC1 | TcHisRS: 4.478%; LiHisRS: 18.92%
* O=C(N1CCCC1)N1Cc2nccn2CC(CN2CCCC2)C1.O=C(O)C(F)(F)F (configuration not stated) | Toxoplasma: -1.022%
* OC1CCN(c2ccc(CNc3nc4ccccc4o3)cc2F)CC1 | Toxoplasma: 14.98%; TcHisRS: 5.82%; LiHisRS: 14.71%; T. brucei: 7.19%
* CC(C)Cc1cc(C(=O)NCCc2ccc(S(C)(=O)=O)cc2)[nH]n1 | Toxoplasma: -1.458%; TcHisRS: -2.174%; LiHisRS: 17.14%; T. brucei: 28.72%
* COc1ccc(-n2ccc(C(=O)NCCN3CCCCCC3)n2)cc1 | Toxoplasma: 2.235%; TcHisRS: 17.24%; LiHisRS: 6.957%; T. brucei: 53.03%
* CN(C)S(=O)(=O)c1ccc(-c2nc(C#N)c(NC(C)(C)C)o2)o1 | TcHisRS: 13%; LiHisRS: 41.3%
* Cc1nn(C)c(N(C)C)c1CNC(C)c1cccc(OC(C)C)c1 (configuration not stated) | Toxoplasma: -3.782%; TcHisRS: 0.3802%; LiHisRS: 18.75%; T. brucei: 5.697%
* CCN(CC)C(=O)[C@@H]1C[C@@H](NC(=O)c2ccoc2)CN1C | Toxoplasma: -7.18%; TcHisRS: 3.797%; LiHisRS: -6.25%; T. brucei: -40.67%
* O=C(c1ccc(CN2CCCCC2)cc1)N1CCCC1c1cccs1 (configuration not stated) | Toxoplasma: 1.318%; TcHisRS: 7.895%; LiHisRS: 19.47%
* CCC(NC1CCCC1)c1ccc(S(C)(=O)=O)cc1 (configuration not stated) | Toxoplasma: -9.465%; TcHisRS: 6.468%; LiHisRS: 2.797%; T. brucei: -19.63%
* CN(C)c1ncc2c(n1)CN(C1CCSCC1)C2=O | Toxoplasma: 78.86%; TcHisRS: 0%; LiHisRS: 0%; T. brucei: -24.97%
* CCc1noc(C2CCCCN2C(=O)c2ccccc2)n1 (configuration not stated) | Toxoplasma: -6.76%; TcHisRS: 4.545%; LiHisRS: 18.33%; T. brucei: -19.91%
* c1cncc(OC[C@@]23CCC[C@@H]2CN(C2CCOCC2)C3)c1 | TcHisRS: 12.85%; LiHisRS: 9.615%
* [H][C@@]12COC[C@]1(CNS(C)(=O)=O)CN(C(=O)C1CC=CC1)C2 | Toxoplasma: -25.15%; T. brucei: -53.25%
* CC(C)(C)c1nnnn1CC(=O)N(CCC#N)c1ccccc1 | Toxoplasma: -1.78%; TcHisRS: -1.754%; LiHisRS: 15.79%; T. brucei: -5.3%
* COCc1noc(Cn2c(C)cc(C(F)(F)F)cc2=O)n1 | Toxoplasma: -10.11%; TcHisRS: 8.458%; LiHisRS: 1.399%; T. brucei: -12.17%
* CSCCCNc1ncnc2cccc(F)c12 | Toxoplasma: 2.179%; TcHisRS: 0%; LiHisRS: 15.83%
* Cc1nc(C)c(C(C)NCc2c(C)nn(C)c2N(C)C)s1 (configuration not stated) | Toxoplasma: 16.4%; TcHisRS: 10%; LiHisRS: 20.54%; T. brucei: 46.97%
* CC(C)CS(=O)(=O)N1C[C@H]2C[C@H](C(=O)NCc3ccccc3)[C@@H](C1)O2 | TcHisRS: 1.639%; LiHisRS: 5.825%
* Cc1noc(C2CN(Cc3ccc4c(c3)CCO4)C2)n1 | TcHisRS: 3.093%; LiHisRS: 17.39%
* C[C@H](N)Cn1nc(-c2cccs2)oc1=O.Cl | Toxoplasma: 21.25%; T. brucei: 9.108%
* COc1ccc(CCC2CCCCN2)cc1OC (configuration not stated) | TcHisRS: 2.97%; LiHisRS: -2.174%; T. brucei: -29.38%
* [H][C@]12CN(c3nc(C)cc(C)n3)CC[C@@]1(O)CCN(S(=O)(=O)N(C)C)C2 | Toxoplasma: -1.079%; T. brucei: -40.54%
* CCn1nc2c(cc1=O)CN(Cc1nc(CCOC)no1)CC2 | Toxoplasma: -7.594%; TcHisRS: 0%; LiHisRS: 23.4%; T. brucei: -20.32%
* CS(=O)(=O)N1CCCC1c1ccnc2nccn12 (configuration not stated) | Toxoplasma: 7.084%; TcHisRS: 4.545%; LiHisRS: 11.27%; T. brucei: -21%
* Cn1nc(COc2cccnc2)c2c1CCN(c1ncccn1)C2 | Toxoplasma: -18.08%; TcHisRS: 10.58%; LiHisRS: 6.364%; T. brucei: -83.74%
* CN(C)c1ccc(NC(=O)c2ccnn2C)nc1 | Toxoplasma: -1.827%; TcHisRS: 7.895%; LiHisRS: 17.86%; T. brucei: -17.07%
* COc1ncccc1CNC(=O)c1ccc(C)[nH]c1=O | Toxoplasma: 13.22%; TcHisRS: 0.2933%; LiHisRS: -4.63%; T. brucei: -15.66%
* O=C(CCC(=O)Nc1ccccc1)NCC(=O)c1ccc(F)cc1F | Toxoplasma: 3.56%; TcHisRS: 9.554%; LiHisRS: 29.58%; T. brucei: -55.88%

Some entries from above, unchanged:

compound	Toxoplasma	TcHisRS	LiHisRS	T. brucei
O=C(N1CCCC1)N1Cc2nccn2CC(CN2CCCC2)C1.O=C(O)C(F)(F)F (configuration not stated)	-1.022	-	-	-
CC(C)Cc1cc(C(=O)NCCc2ccc(S(C)(=O)=O)cc2)[nH]n1	-1.458	-2.174	17.14	28.72